# Results reported in article PMC5996148.
# Protein sequences, listed by entry. Tags and fused reporters are not part of them.
# UniProt P30530, whole entry: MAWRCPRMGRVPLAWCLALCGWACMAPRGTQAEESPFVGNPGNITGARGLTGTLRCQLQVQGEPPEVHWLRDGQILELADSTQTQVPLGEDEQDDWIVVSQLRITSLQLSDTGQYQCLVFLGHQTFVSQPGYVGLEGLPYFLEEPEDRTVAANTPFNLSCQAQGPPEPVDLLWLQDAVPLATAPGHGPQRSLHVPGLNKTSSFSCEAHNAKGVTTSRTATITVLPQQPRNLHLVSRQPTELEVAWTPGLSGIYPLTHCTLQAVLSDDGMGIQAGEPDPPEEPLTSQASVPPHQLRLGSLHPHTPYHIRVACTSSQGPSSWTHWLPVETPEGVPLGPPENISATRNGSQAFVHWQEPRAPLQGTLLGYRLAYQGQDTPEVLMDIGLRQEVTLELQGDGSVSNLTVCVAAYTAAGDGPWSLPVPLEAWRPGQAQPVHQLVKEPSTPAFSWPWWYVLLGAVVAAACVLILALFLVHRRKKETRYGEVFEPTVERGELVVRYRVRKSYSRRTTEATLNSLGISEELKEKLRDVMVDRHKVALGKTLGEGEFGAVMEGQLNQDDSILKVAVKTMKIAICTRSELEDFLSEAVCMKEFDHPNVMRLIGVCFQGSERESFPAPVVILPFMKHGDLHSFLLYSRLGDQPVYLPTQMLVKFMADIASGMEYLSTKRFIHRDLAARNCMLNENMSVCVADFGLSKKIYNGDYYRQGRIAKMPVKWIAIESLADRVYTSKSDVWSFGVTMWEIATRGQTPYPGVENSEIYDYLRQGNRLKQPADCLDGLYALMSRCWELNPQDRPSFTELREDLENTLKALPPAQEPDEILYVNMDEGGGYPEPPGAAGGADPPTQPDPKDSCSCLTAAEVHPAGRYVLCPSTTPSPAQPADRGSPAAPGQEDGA
# The list shows a part of the results. For some assays here: The source does not settle which construct or isoform was used.
# Tests used:
# Test in all cases: protein microarray (ProtoArray v5.0), streptavidin-Alexa Fluor 647
# Details in all cases: 3'-biotin; 20 mM Tris (pH 7.5), 5 mM MgCl2, 100 mM KCl, 0.1% Tween-20, A/T-rich and random oligonucleotide blockers; temperature not stated; high values mean tight binding
# ATPBD4 (human) = test system: ATPBD4 (human)
# ATPIF1 (human) = test system: ATPIF1 (human)
# ATXN3 (human) = test system: ATXN3 (human)
# AXL = AXL (UniProt P30530)
# AYTL1 = target: T1, AYTL1 (UniProt Q7L5N7)
# T1 sequence: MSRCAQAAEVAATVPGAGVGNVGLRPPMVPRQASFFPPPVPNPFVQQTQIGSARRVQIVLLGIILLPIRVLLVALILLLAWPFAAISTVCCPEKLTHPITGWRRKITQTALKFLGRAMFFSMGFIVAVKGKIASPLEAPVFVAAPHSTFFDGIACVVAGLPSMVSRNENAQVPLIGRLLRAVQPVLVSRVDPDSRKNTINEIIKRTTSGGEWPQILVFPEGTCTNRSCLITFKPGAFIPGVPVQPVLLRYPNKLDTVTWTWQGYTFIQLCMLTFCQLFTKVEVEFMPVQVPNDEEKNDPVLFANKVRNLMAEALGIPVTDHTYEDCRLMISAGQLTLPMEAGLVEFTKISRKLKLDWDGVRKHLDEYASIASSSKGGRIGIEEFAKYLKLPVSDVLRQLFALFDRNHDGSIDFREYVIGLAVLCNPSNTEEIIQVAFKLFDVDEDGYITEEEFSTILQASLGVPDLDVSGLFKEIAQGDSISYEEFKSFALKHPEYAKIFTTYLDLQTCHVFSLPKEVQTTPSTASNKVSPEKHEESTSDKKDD
# AZIN1 (human) = test system: AZIN1 (human)
# [1] = test system: Acetyl-coenzyme A synthetase, cytoplasmic (human)
# [2] = test system: Acetyl-coenzyme A transporter 1 (human)
# [3] = test system: Actin-related protein 2/3 complex subunit 4 (human)
# [4] = test system: Activator of 90 kDa heat shock protein ATPase homolog 2 (human)
# [5] = test system: Activin receptor type-2B (human)
# [6] = test system: Acyl carrier protein, mitochondrial (human)
# [7] = test system: Acylphosphatase-1 (human)
# [8] = test system: Adenylate kinase isoenzyme 2, mitochondrial (human)
# [9] = test system: Adenylate kinase isoenzyme 4, mitochondrial (human)
# Adipophilin (human) = test system: Adipophilin (human)
# [10] = test system: Alcohol dehydrogenase class 4 mu/sigma chain (human)
# [11] = test system: Aldehyde dehydrogenase family 16 member A1 (human)
# [12] = test system: Aldehyde dehydrogenase family 3 member B1 (human)
# [13] = test system: Aldehyde dehydrogenase family 8 member A1 (human)
sequence,measurement,setting,value
GGGAGGCTGAGGCAGG [G4-1 biotinylated (PQS2)],binding signal,ATPBD4 (human),-0.328 z-score
same,binding signal,ATPIF1 (human),-0.274 z-score
same,binding signal,ATXN3 (human),-0.346 z-score
same,binding signal,AXL,-0.324 z-score
same,binding signal,AYTL1,-0.294 z-score
same,binding signal,AZIN1 (human),-0.307 z-score
same,binding signal,[1],-0.323 z-score
same,binding signal,[2],-0.335 z-score
same,binding signal,[3],-0.303 z-score
same,binding signal,[4],-0.313 z-score
same,binding signal,[5],-0.291 z-score
same,binding signal,[6],-0.347 z-score
same,binding signal,[7],-0.285 z-score
same,binding signal,[8],-0.328 z-score
same,binding signal,[9],-0.353 z-score
same,binding signal,Adipophilin (human),-0.323 z-score
same,binding signal,[10],-0.325 z-score
same,binding signal,[11],-0.351 z-score
same,binding signal,[12],-0.339 z-score
same,binding signal,[13],-0.357 z-score

# Quoted at random: two entries already listed.
sequence,measurement,setting,value
GGGAGGCTGAGGCAGG [G4-1 biotinylated (PQS2)],binding signal,AXL,-0.324 z-score
same,binding signal,Adipophilin (human),-0.323 z-score
